Measurements taken from US20230310629A1, “BISPECIFIC ANTIBODY-DRUG CONJUGATES TARGETING EGFR AND MUC1 AND USES THEREOF” (Merck Patent GmbH, priority 2020, published 2023).
Changes are numbered by the printed parent chain. Entries after “also recorded” stand apart in the source; their conditions may differ.

B1: HT186-D11: parent anti-MUC1 antibody (Thie H. et al.) from which H02 was affinity matured (antibody, V domains shown)
VH: QMQLVQSEAELKKPGASVKVSCKASGYSFTGHYMHWVRQAPGQGLEWMGWIDPVTGGTKYAQNFQGWVTMTRDTSIRTAYLELSRLRSDDTAMYYCAREVTGDRGQFDKWGQGTLVTVAS
VL: QSVLTQPPSVSVAPGKTARITCGGNNIGSKSVHWYQQKPGQAPALVIYYGSNRPSGIPERFSGSNSGNTATLTISRVEAGDEADYYCQVWDSSSDWVFGGGTKLTVL
B2: 1993-H02: anti-MUC1 antibody variant from affinity maturation of HT186-D11, with HT186-D11 light chain; developed as scFv (antibody, V domains shown)
VH: B1 VH with G31S, Y33F, V100A, T101R, G102A
VL: B1 VL

Test system: human MUC1 peptide
Test: PEPperMAP epitope mapping of anti-MUC1 antibodies
Assay type: binding
Details: peptide microarray, antibody 1 μg/ml

Molecule	minimal consensus motif recognized (epitope)	minimal consensus motif recognized (epitope) (listed as H02)
B1	TRPAP	
B2		TRPAP; also recorded: DTRPAP
